Some of these results come from one statement about several compounds together.
Biological target: COX-1 (Homo sapiens, UniProt P23219)
Test: Inhibition of COX-1, compared with COX-2 for selectivity
Type: biochemical
Details: ratio of IC50 values, COX-1 vs COX-2

Amino acid sequences for entries named in this document (tags omitted). Residues count along the entry.
UniProt P23219, 24-599: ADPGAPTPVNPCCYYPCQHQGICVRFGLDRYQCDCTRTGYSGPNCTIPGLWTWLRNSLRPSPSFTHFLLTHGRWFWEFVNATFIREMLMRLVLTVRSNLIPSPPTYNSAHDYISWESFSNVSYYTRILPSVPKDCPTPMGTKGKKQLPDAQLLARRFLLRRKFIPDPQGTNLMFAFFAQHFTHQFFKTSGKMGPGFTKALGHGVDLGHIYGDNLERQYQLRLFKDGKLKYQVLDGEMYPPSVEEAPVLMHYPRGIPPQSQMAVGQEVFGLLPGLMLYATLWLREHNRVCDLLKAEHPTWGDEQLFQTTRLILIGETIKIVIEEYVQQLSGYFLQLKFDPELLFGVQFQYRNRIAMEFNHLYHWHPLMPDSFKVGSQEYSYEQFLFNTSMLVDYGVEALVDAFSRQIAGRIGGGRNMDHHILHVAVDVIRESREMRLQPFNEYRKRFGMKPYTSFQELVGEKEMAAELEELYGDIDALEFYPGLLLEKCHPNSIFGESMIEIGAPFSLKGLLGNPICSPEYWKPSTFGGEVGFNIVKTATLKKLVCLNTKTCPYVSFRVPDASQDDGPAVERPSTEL

CS(=O)(=O)c1ccc(-c2ccc3c(C=O)cn(CC4CCCCC4)c3n2)cc1 [Example 4, 1-(cyclohexanemethyl)-6-[4-(methylsulfonyl)phenyl]-7-azaindole-3-carboxaldehyde]
selectivity for COX-2 over COX-1, based on comparison of the respective IC50 values: at least 100 fold

Reference: patent publication US20060270880A1, “7-Azaindole derivatives as cox2 inhibitors” (priority 2003, published 2006)
